In the supplement of paper PMC3334620:
In all, about 33,000 sequences were measured (“E-score (-0.5 to 0.5)”: median about -0.0014, highest 2% from about 0.25 on). This is one part of the list.

molecular target: T1, Cad1 (UniProt P24813); assay: PBM E-score (8-mer binding enrichment) (E-score (-0.5 to 0.5)); higher = stronger / more preferred TF binding; settings: protein concentration: 100 nM; construct: GST-full length
T1 sequence: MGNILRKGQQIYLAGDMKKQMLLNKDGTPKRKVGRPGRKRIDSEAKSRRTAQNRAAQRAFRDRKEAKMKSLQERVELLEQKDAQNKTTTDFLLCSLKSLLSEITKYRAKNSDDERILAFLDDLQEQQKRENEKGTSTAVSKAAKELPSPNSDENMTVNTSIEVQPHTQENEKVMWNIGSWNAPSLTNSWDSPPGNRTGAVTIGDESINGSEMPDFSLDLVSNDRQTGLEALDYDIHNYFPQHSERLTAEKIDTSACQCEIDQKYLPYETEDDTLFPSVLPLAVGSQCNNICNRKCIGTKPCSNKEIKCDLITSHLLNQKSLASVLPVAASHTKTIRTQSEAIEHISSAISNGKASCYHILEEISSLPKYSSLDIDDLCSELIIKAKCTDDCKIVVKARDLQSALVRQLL
Description: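 Universal 'all 10-mer' protein binding microarrays (Agilent AMADID 015681) probed with GST-tagged S. cerevisiae TFs (full-length or DBD) made by in vitro transcription/translation (PURExpress), about 100-200 nM. Bound TF was detected with fluorescent anti-GST. Each ungapped 8-mer (which stands for itself and its reverse complement) is scored by the PBM enrichment score (E-score), a modified Wilcoxon-Mann-Whitney statistic from -0.5 to +0.5, computed with the Universal PBM Analysis Suite. Scale: above 0.35 generally sequence-specific binding.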

| Sequence | PBM E-score |
| --- | --- |
| ATTTTGTA | 0.155 |
| CACACGAG | -0.0571 |
| TCAGCGAA | 0.021 |
| CAGCTTCA | 0.0676 |
| ACTCGAAT | -0.0317 |
| CGTAGCGA | -0.0894 |
| CTAACGCA | 0.138 |
| GAGTCCAC | -0.183 |
| ATTGCGGA | 0.186 |
| CCGCAAGG | -0.0627 |
| ACGCAACG | 0.0718 |
| CCCCAGAC | -0.245 |
| CACCGTAA | 0.0876 |
| ATATAGAC | 0.154 |
| CCCAGGTC | -0.3 |
| ATTCTTAC | 0.0732 |
| CCTGCGCC | -0.179 |
| ATTAGAGG | -0.0968 |
| AGATGGAT | -0.141 |
| AGTCGTTC | -0.0386 |
| ACTCAAAA | 0.0472 |
| CACCTCGA | 0.112 |
| CATCTCTC | -0.131 |
| AAAACTCG | 0.185 |
| TCACTGAA | -0.00153 |

| Sequence | PBM E-score |
| --- | --- |
| CTACAGTA | 0.0624 |
| CCTCGACA | -0.0568 |
| CTGTCAGA | 0.0425 |
| GACAATAC | 0.184 |
| CTGCAATC | 0.11 |
| TAAGATGA | 0.0316 |
| ATCCGTAG | -0.234 |
| ATGGAGAA | 0.0427 |
| AGTCCGAC | -0.108 |
| AGAACGGA | 0.0388 |
| AGCGTTAC | -0.13 |
| GGAAATAC | 0.161 |
| AGTTTGAT | 0.0851 |
| CAGACACC | 0.00559 |
| CAACCCCA | 0.0314 |
| CAAAGTGA | 0.108 |
| GGCAACGA | 0.212 |
| ACGATACG | -0.0352 |
| CGGTCTCC | -0.167 |
| CGAAGGGA | -0.139 |
| CCCGACCG | -0.328 |
| CTAGTCCA | -0.0675 |
| GAATCGGA | 0.132 |
| AGGCGGGC | -0.204 |
| ACATGTCA | 0.024 |

| Sequence | PBM E-score |
| --- | --- |
| AATTAGAA | 0.063 |
| AGTAGTGG | 0.0582 |
| CGGGTCTA | 0.0381 |
| ACTGACCC | -0.232 |
| AGAACTCA | 0.00835 |
| ATAAAGGC | -0.093 |
| ACCCGTAC | -0.152 |
| GTTATTAA | 0.291 |
| AACTGCAG | -0.0613 |
| GGCGCACC | -0.0951 |
| CCAAACCA | -0.071 |
| AGACGTAT | -0.0747 |
| AGTGATCA | 0.0352 |
| GCCCCGGA | -0.23 |
| GCAACCCA | 0.0297 |
| ACACGCAA | 0.198 |
| TAGGATCA | 0.0309 |
| AACGCGAG | 0.115 |
| GCTGCAGA | 0.147 |
| GACACTTA | 0.00183 |
| AAACACTT | 0.124 |
| ATGTCAAA | 0.165 |
| AGTCTTCC | 0.0794 |
| CGGATGCA | -0.136 |
| GGTGAGAC | -0.171 |

| Sequence | PBM E-score |
| --- | --- |
| GAATTTGC | 0.0976 |
| CCCCGTCA | -0.195 |
| ACGTATAA | 0.148 |
| ACCCCTAG | -0.192 |
| ATTCCAGC | 0.0244 |
| CGACAATC | -0.0628 |
| ACTAAAGT | 0.0907 |
| AGGAAAGC | -0.143 |
| ATAGGCGC | 0.0733 |
| GAACTCAC | -0.0254 |
| CTTGAAGC | 0.056 |
| CACCGTGC | 0.161 |
| CCGCGGAA | 0.168 |
| CCCGGACC | -0.234 |
| GCCGTGCC | -0.0494 |
| TCAGTACA | 0.0479 |
| CTCTGACA | 0.0983 |
| AATACCGT | 0.0489 |
| CTACGAAA | 0.0242 |
| CATAAAGA | 0.0856 |
| AGCACCAC | -0.0896 |
| ATGTTCCC | -0.131 |
| AACTGCAA | 0.00596 |
| CGCGCAAC | 0.2 |
| AATCTAAT | -0.0351 |

Given with tabs: part of the list above
Sequence	PBM E-score
ACCCCTAG	-0.192
ATTCCAGC	0.0244
CGACAATC	-0.0628

Going on with the list.

| Sequence | PBM E-score |
| --- | --- |
| CGGCGGAA | 0.0485 |
| ATCCGTGC | 0.15 |
| GTGTGTTA | 0.207 |
| ATGGACCA | 0.135 |
| ATCAATAG | 0.0176 |
| AACCCTTC | -0.0614 |
| CTCCCTCA | -0.112 |
| AATTCGTC | 0.274 |
| CTAGAGTA | -0.0808 |
| ACTATCCA | 0.0296 |
| AAATGGGG | -0.267 |
| ATAGGACA | -0.248 |
| CCACGTTA | 0.0705 |
| ACACAAAC | 0.0811 |
| GCCCTGGA | -0.11 |
| CCCGATGC | -0.0619 |
| AGAACCCA | -0.0477 |
| ACACCAGT | -0.122 |
| CCCAGACA | -0.108 |
| AGTCCTCC | -0.244 |
| CCACGAGA | -0.127 |
| GAGGACCA | -0.071 |
| GGCTATGA | -0.0928 |
| TATTTGGA | -0.0472 |
| CATAGGAA | -0.0271 |

| Sequence | PBM E-score |
| --- | --- |
| GCACTGAC | 0.00743 |
| GAGGGACA | -0.165 |
| ATGTTAAT | 0.0743 |
| TCCGTTCA | 0.0746 |
| AGAGTACG | -0.162 |
| ATTCTAAA | 0.181 |
| CCAGCCGC | -0.012 |
| AGATTAAA | 0.233 |
| CCATTGAC | -0.114 |
| CGAAGGAA | 0.115 |
| AACGTAAT | 0.261 |
| AGGCTCGC | -0.00907 |
| ATCGGAGC | -0.0863 |
| ATAAGGGA | -0.0969 |
| AAGGCCGT | 0.043 |
| ATTACCTG | 0.0602 |
| CCGCAGCA | 0.115 |
| CTTTTAAA | -0.0671 |
| ACGCTTGA | -0.0208 |
| AGTGTTAC | 0.134 |
| AGGCGCCG | 0.216 |
| ACCGCATG | 0.00313 |
| AAGGCTTA | 0.0239 |
| AAATGGCA | -0.0715 |
| GTAGTATA | 0.17 |

Part of the list above, reformatted:
Sequence	PBM E-score
ATCGGAGC	-0.0863
ATAAGGGA	-0.0969
AAGGCCGT	0.043
ATTACCTG	0.0602
CCGCAGCA	0.115
CTTTTAAA	-0.0671
ACGCTTGA	-0.0208

Carrying on:

| Sequence | PBM E-score |
| --- | --- |
| CAAAGGGC | -0.061 |
| ATGGGACG | -0.152 |
| CATGCTCG | -0.179 |
| CGTCGGGA | -0.0539 |
| CTGGTCGC | -0.0586 |
| ATTGGCAA | 0.121 |
| GTAGCGGA | 0.0465 |
| TAGAGGAA | -0.127 |
| ATCACGCA | 0.0574 |
| AAAGCGCT | 0.208 |
| ACGCGGAT | 0.0938 |
| ATTTCCCG | 0.209 |
| CCTGTTAA | -0.0931 |
| ATAGAACA | 0.029 |
| AAAGGTCT | -0.212 |
| AGAGTGTA | -0.193 |
| CCGTGTTA | 0.0186 |
| ACCTTTAG | -0.142 |
| ACTAAGGC | 0.0629 |
| ATGTACTA | 0.11 |
| CGTCACTA | 0.0921 |
| CCAATCAG | -0.134 |
| AGCGGCAG | -0.0167 |
| CGGCCAAA | 0.0395 |
| TCACGTAA | 0.0889 |

| Sequence | PBM E-score |
| --- | --- |
| GTCGATTA | 0.115 |
| CTGTTAAG | -0.0803 |
| ATTGTTAA | 0.0122 |
| CACCGCTA | -0.00231 |
| AGCAAGCA | -0.152 |
| GCTTGACA | -0.041 |
| AACTGTGT | -0.0147 |
| TCCATGAA | 0.0281 |
| CGAGCAAC | 0.051 |
| GGTTACCA | 0.0282 |
| GCCCCCGC | -0.376 |
| ACGGCCAT | -0.207 |
| GACGCTGA | 0.0912 |
| TAGTTTGA | 0.167 |
| CTCGTACA | -0.0337 |
| CACTCGCG | 0.122 |
| GCTGGGCC | -0.297 |
| CGGGAATC | -0.0186 |
| TATTCACA | 0.241 |
| AGACGAGG | -0.199 |
| CCTCCTTA | -0.237 |
| AGTAATTA | 0.283 |
| ACCTATGG | 0.041 |
| CTATCCCA | -0.137 |
| GAGAAACC | -0.0404 |

| Sequence | PBM E-score |
| --- | --- |
| AACCGGTG | -0.0493 |
| ACGTGTGA | -0.0977 |
| ACTGTTCG | 0.0815 |
| ATAACGCC | -0.0129 |
| ATCGCGTA | 0.0548 |
| AACTCTTC | -0.0474 |
| TAAACGTA | 0.172 |
| AGACGCCG | 0.105 |
| TAGGGATA | -0.0305 |
| GAAGCCGA | -0.0276 |
| TAGCGCCA | 0.0297 |
| ACTTCAGA | 0.0469 |
| CAACTGAG | 0.0347 |
| GACAACCA | 0.218 |
| CGGTCAAC | 0.114 |
| CCCTCCGC | -0.168 |
| AATACACA | 0.144 |
| CGGCCCAC | -0.223 |
| GGCATCGA | -0.176 |
